These are yes or no findings as the source states them, for the method shown. Binding seen in cells or lysates may run through a third protein. Some binding calls cover weakened binding; strength is not graded here. Tags and fused reporters may be left off the sequences shown.
Molecular target: T1, C-terminal myc-tagged version of Narp (myc-Narp) (Rattus norvegicus (Rat)) (UniProt P97738)
T1 sequence: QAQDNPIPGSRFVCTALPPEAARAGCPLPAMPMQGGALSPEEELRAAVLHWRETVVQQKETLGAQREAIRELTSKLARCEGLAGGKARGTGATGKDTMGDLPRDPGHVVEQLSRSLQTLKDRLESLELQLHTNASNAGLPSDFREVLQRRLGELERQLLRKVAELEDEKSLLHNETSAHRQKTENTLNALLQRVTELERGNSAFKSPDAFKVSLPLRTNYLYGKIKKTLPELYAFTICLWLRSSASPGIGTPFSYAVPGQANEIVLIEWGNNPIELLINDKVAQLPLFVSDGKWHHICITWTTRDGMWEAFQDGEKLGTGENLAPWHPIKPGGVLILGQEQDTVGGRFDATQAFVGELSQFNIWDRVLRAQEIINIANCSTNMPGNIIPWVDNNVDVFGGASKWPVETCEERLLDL
Test: competition in the GST pull-down; competitor of GST-G1-NarI

Binder: LRRQRIDISRRG [synthetic G1-12mer peptide]
- binding: binds

Reference: patent publication US20090123940A1, “MOLECULES INVOLVED IN SYNAPTOGENESIS AND USES THEREFOR” (THE JOHNS HOPKINS UNIVERSITY, priority 2007, published 2009)
